Source: paper doi:10.1101/2025.02.11.637656

Columns and labels:
Experiment in all cases: pull-down
[1] = molecular target: GST-tagged Xvelo F3 (386-610 aa) (Xenopus)
[2] = molecular target: GST-tagged Xvelo F1 (1-160 aa) (Xenopus)
[3] = molecular target: GST-tagged Xvelo F4 (586-779 aa) (Xenopus)

binding [1]: binds
binding [2]: binds
binding [3]: binds
B1: Spindle assembly defective protein 6 (Sas6) (protein, UniProt Q6UVJ0 1-657)
chain: MSQVLFHQLVPLQVKCKDCEERRVSIRMSIELQSVSNPVHRKDLVIRLTDDTDPFFLYNLVISEEDFQSLKFQQGLLVDFLAFPQKFIDLLQQCTQEHAKEIPRFLLQLVSPAAILDNSPAFLNVVETNPFKHLTHLSLKLLPGNDVEIKKFLAGCLKCSKEEKLSLMQSLDDATKQLDFTRKTLAEKKQELDKLRNEWASHTAALTNKHSQELTNEKEKALQAQVQYQQQHEQQKKDLEILHQQNIHQLQNRLSELEAANKDLTERKYKGDSTIRELKAKLSGVEEELQRTKQEVLSLRRENSTLDVECHEKEKHVNQLQTKVAVLEQEIKDKDQLVLRTKEAFDTIQEQKVVLEENGEKNQVQLGKLEATIKSLSAELLKANEIIKKLQGDLKTLMGKLKLKNTVTIQQEKLLAEKEEKLQKEQKELQDVGQSLRIKEQEVCKLQEQLEATVKKLEESKQLLKNNEKLITWLNKELNENQLVRKQDVLGPSTTPPAHSSSNTIRSGISPNLNVVDGRLTYPTCGIGYPVSSAFAFQNTFPHSISAKNTSHPGSGTKVQFNLQFTKPNASLGDVQSGATISMPCSTDKENGENVGLESKYLKKREDSIPLRGLSQNLFSNSDHQRDGTLGALHTSSKPTALPSASSAYFPGQLPNS

These are yes or no findings as the source states them, for the method shown. Binding seen in cells or lysates may run through a third protein. Binding can be weak; no strength is given.
